The list shows only some results of the screen, not a fair sample: it covers a few groups of compounds. Not every dose and run of a compound is shown. T/C is the treated group as % of the vehicle group. Schedules are NCI's codes, taken here to give the interval after Q, in days (D) or hours (H), and the number of doses after X. Some entries show no survivor count and are marked so; the dose need not have been tolerated. Some entries were tested several times; the results are listed from low to high. For survival time, this PubChem deposit counts one and a half times the control or more as active, and values a quarter to a half above the control carry no call in these data; other NCI protocols may use other cut-offs.
Tested on: BDF1 mice, colon carcinoma 38 sc, T/C %
Experiment: NCI In Vivo Anticancer Drug Screen. Data for tumor model Colon Carcinoma 38 (subcutaneous) in B6D2F1 (BDF1) mice
Procedure: The antitumor activity of compounds was measured in mice bearing transplantable tumors. Survival or tumor size were measured and the results are expressed as the measurement made in the treated group (T) divided by the measurement made in the vehicle treated control group (C). The tumor model used in this assay is Colon Carcinoma 38 (subcutaneous) in B6D2F1 (BDF1) mice

[1] = T/C endpoint: median tumor weight (est.), dose: 1.0 mg/kg/injection, schedule: Q07DX002 (ip), vehicle: saline, evaluated on day 20, higher T/C = larger tumour
[2] = T/C endpoint: median tumor weight (est.), dose: 2.0 mg/kg/injection, schedule: Q07DX002 (ip), vehicle: saline, evaluated on day 20, higher T/C = larger tumour
[3] = T/C endpoint: median tumor weight (est.), dose: 4.0 mg/kg/injection, schedule: Q07DX002 (ip), vehicle: saline, evaluated on day 20, higher T/C = larger tumour
[4] = T/C endpoint: median tumor weight (est.), dose: 8.0 mg/kg/injection, schedule: Q07DX002 (ip), vehicle: saline, evaluated on day 20, higher T/C = larger tumour
[5] = T/C endpoint: median tumor weight (est.), dose: 16.0 mg/kg/injection, schedule: Q07DX002 (ip), vehicle: saline, evaluated on day 20, higher T/C = larger tumour

SMILES: CC1=C[C@H]2O[C@@H]3[C@H](O)[C@@H](O)[C@](C)([C@@]2(CO)CC1)[C@@]31CO1
- T/C (T/C endpoint: median tumor weight (est.), dose: 0.12 mg/kg/injection, schedule: Q07DX003 (ip), vehicle: saline, evaluated on day 20, higher T/C = larger tumour): 64 % of control [survivor count not shown]
- T/C (T/C endpoint: median tumor weight (est.), dose: 0.25 mg/kg/injection, schedule: Q07DX003 (ip), vehicle: saline, evaluated on day 20, higher T/C = larger tumour): 102 % of control [survivor count not shown]
- T/C (T/C endpoint: median tumor weight (est.), dose: 0.5 mg/kg/injection, schedule: Q07DX003 (ip), vehicle: saline, evaluated on day 20, higher T/C = larger tumour): 37 [survivor count not shown] and 60 % of control [survivor count not shown]
- T/C [1]: 63 [survivor count not shown] and 106 % of control [survivor count not shown]
- T/C (T/C endpoint: median tumor weight (est.), dose: 1.0 mg/kg/injection, schedule: Q07DX003 (ip), vehicle: saline, evaluated on day 20, higher T/C = larger tumour): 65 [survivor count not shown], 73 [survivor count not shown], 107 % of control [survivor count not shown]
- T/C [2]: 72 [survivor count not shown] and 105 % of control [survivor count not shown]
- T/C (T/C endpoint: median tumor weight (est.), dose: 2.0 mg/kg/injection, schedule: Q07DX003 (ip), vehicle: saline, evaluated on day 20, higher T/C = larger tumour): 12 [survivor count not shown], 62 [survivor count not shown], 88 % of control [survivor count not shown]
- T/C [3]: 97 % of control [survivor count not shown]
- T/C (T/C endpoint: median tumor weight (est.), dose: 4.0 mg/kg/injection, schedule: Q07DX003 (ip), vehicle: saline, evaluated on day 20, higher T/C = larger tumour): 46 [survivor count not shown], 54 [survivor count not shown], 95 % of control [survivor count not shown]
- T/C [4]: 52 % of control [survivor count not shown]
- T/C (T/C endpoint: median tumor weight (est.), dose: 8.0 mg/kg/injection, schedule: Q07DX003 (ip), vehicle: saline, evaluated on day 20, higher T/C = larger tumour): 47 [survivor count not shown], 57 [survivor count not shown], 81 % of control [survivor count not shown]
- T/C [5]: 36 % of control [survivor count not shown]
- T/C (T/C endpoint: median tumor weight (est.), dose: 16.0 mg/kg/injection, schedule: Q07DX003 (ip), vehicle: saline, evaluated on day 20, higher T/C = larger tumour): 17 % of control [survivor count not shown]

SMILES: CC(=O)OC[C@]12C[C@H](OC(=O)CC(C)C)C(C)=C[C@H]1O[C@@H]1[C@H](O)[C@@H](O)[C@@]2(C)[C@@]12CO2
- T/C (T/C endpoint: median tumor weight (est.), dose: 0.25 mg/kg/injection, schedule: Q07DX002 (ip), vehicle: saline, evaluated on day 20, higher T/C = larger tumour): 81 % of control [survivor count not shown]
- T/C (T/C endpoint: median tumor weight (est.), dose: 0.5 mg/kg/injection, schedule: Q07DX002 (ip), vehicle: saline, evaluated on day 20, higher T/C = larger tumour): 111 [survivor count not shown] and 129 % of control [survivor count not shown]
- T/C [1]: 64 [survivor count not shown], 85 [survivor count not shown], 96 % of control [survivor count not shown]
- T/C [2]: 27 [survivor count not shown], 58 [survivor count not shown], 74 % of control [survivor count not shown]
- T/C [3]: 23 [survivor count not shown] and 38 % of control [survivor count not shown]
- T/C [4]: 86 % of control [survivor count not shown]
- T/C [5]: 35 % of control [survivor count not shown]

SMILES: CC1=CC2OC3CC4OC(=O)/C=C/C=C/C(C(C)O)OCC(O)C(C)CC(=O)OCC2(CC1O)C4(C)C31CO1 (configuration not stated)
- T/C (T/C endpoint: median survival time, dose: 1.0 mg/kg/injection, schedule: Q07DX003 (sc), vehicle: other, higher T/C = longer survival): 98 % of control [survivor count not shown]
- T/C (T/C endpoint: median survival time, dose: 2.0 mg/kg/injection, schedule: Q07DX003 (sc), vehicle: other, higher T/C = longer survival): 109 % of control [survivor count not shown]
- T/C (T/C endpoint: median tumor weight (est.), dose: 0.08 mg/kg/injection, schedule: Q07DX003 (ip), vehicle: Klucel (hydroxypropylcellulose) (HPC), evaluated on day 20, higher T/C = larger tumour): 79 % of control [survivor count not shown]
- T/C (T/C endpoint: median tumor weight (est.), dose: 0.15 mg/kg/injection, schedule: Q07DX003 (ip), vehicle: Klucel (hydroxypropylcellulose) (HPC), evaluated on day 20, higher T/C = larger tumour): 84 % of control [survivor count not shown]
- T/C (T/C endpoint: median tumor weight (est.), dose: 0.31 mg/kg/injection, schedule: Q07DX003 (ip), vehicle: Klucel (hydroxypropylcellulose) (HPC), evaluated on day 20, higher T/C = larger tumour): 113 % of control [survivor count not shown]
- T/C (T/C endpoint: median tumor weight (est.), dose: 0.62 mg/kg/injection, schedule: Q07DX003 (ip), vehicle: Klucel (hydroxypropylcellulose) (HPC), evaluated on day 20, higher T/C = larger tumour): 101 % of control [survivor count not shown]

SMILES: C[C@@H]1CCOC(=O)/C=C/C=C\C(=O)O[C@@H]2C[C@H]3O[C@@H]4[C@@H]5OC5(C)CCC4(COC(=O)[C@H]1O)[C@]2(C)[C@@]31CO1 (some centres not stated)
- T/C (T/C endpoint: median tumor weight (est.), dose: 0.5 mg/kg/injection, schedule: Q07DX003 (ip), vehicle: saline + alcohol, evaluated on day 20, higher T/C = larger tumour): 121 % of control [survivor count not shown]
- T/C (T/C endpoint: median tumor weight (est.), dose: 1.0 mg/kg/injection, schedule: Q07DX003 (ip), vehicle: saline + alcohol, evaluated on day 20, higher T/C = larger tumour): 97 % of control [survivor count not shown]
- T/C (T/C endpoint: median tumor weight (est.), dose: 2.0 mg/kg/injection, schedule: Q07DX003 (ip), vehicle: saline + alcohol, evaluated on day 20, higher T/C = larger tumour): 87 % of control [survivor count not shown]
- T/C (T/C endpoint: median tumor weight (est.), dose: 4.0 mg/kg/injection, schedule: Q07DX003 (ip), vehicle: saline + alcohol, evaluated on day 20, higher T/C = larger tumour): 135 % of control [survivor count not shown]
- T/C (T/C endpoint: median tumor weight (est.), dose: 8.0 mg/kg/injection, schedule: Q07DX003 (ip), vehicle: saline + alcohol, evaluated on day 20, higher T/C = larger tumour): 145 % of control [survivor count not shown]

SMILES: CC1=CC2OC3CC4OC(=O)/C=C/C=C/C(C(C)O)OCC/C(C)=C/C(=O)OCC2(CC1)C4(C)C31CO1 (configuration not stated)
- T/C (T/C endpoint: median tumor weight (est.), dose: 1.56 mg/kg/injection, schedule: Q07DX002 (ip), vehicle: suspension in saline, evaluated on day 20, higher T/C = larger tumour): 141 % of control [survivor count not shown]
- T/C (T/C endpoint: median tumor weight (est.), dose: 3.12 mg/kg/injection, schedule: Q07DX002 (ip), vehicle: suspension in saline, evaluated on day 20, higher T/C = larger tumour): 110 % of control [survivor count not shown]
- T/C (T/C endpoint: median tumor weight (est.), dose: 6.25 mg/kg/injection, schedule: Q07DX002 (ip), vehicle: suspension in saline, evaluated on day 20, higher T/C = larger tumour): 138 % of control [survivor count not shown]
- T/C (T/C endpoint: median tumor weight (est.), dose: 12.5 mg/kg/injection, schedule: Q07DX002 (ip), vehicle: suspension in saline, evaluated on day 20, higher T/C = larger tumour): 101 % of control [survivor count not shown]
- T/C (T/C endpoint: median tumor weight (est.), dose: 25.0 mg/kg/injection, schedule: Q07DX002 (ip), vehicle: suspension in saline, evaluated on day 20, higher T/C = larger tumour): 102 % of control [survivor count not shown]

SMILES: CC1=C[C@H]2O[C@@H]3C[C@H]4OC(=O)/C=C\C=C\C(C(C)O)OCC(O)C(C)CC(=O)OC[C@@]2(C[C@@H]1O)[C@]4(C)[C@@]31CO1 (some centres not stated)
- T/C (T/C endpoint: median survival time, dose: 0.5 mg/kg/injection, schedule: Q07DX003 (sc), vehicle: other, higher T/C = longer survival): 107 % of control [survivor count not shown]

— PubChem BioAssay AID212 (DTP/NCI, 2004)
